# Percent effect of library compounds

The chains behind the UniProt entries cited, without tags or fusion partners. Residues count along the entry.
UniProt P9WPC5, whole entry: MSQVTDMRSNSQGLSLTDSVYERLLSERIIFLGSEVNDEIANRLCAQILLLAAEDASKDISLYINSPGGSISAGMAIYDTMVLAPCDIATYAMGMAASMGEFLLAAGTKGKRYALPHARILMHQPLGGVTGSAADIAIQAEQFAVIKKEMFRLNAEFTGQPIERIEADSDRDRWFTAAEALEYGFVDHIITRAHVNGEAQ
UniProt P9WPC3, whole entry partner: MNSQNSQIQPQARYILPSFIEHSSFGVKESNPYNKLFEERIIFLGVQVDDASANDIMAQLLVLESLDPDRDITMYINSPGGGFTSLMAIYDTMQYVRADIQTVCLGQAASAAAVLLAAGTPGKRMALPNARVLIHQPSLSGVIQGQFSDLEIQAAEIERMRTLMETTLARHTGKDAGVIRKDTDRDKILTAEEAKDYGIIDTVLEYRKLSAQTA
UniProt Q4DA54, 1-478: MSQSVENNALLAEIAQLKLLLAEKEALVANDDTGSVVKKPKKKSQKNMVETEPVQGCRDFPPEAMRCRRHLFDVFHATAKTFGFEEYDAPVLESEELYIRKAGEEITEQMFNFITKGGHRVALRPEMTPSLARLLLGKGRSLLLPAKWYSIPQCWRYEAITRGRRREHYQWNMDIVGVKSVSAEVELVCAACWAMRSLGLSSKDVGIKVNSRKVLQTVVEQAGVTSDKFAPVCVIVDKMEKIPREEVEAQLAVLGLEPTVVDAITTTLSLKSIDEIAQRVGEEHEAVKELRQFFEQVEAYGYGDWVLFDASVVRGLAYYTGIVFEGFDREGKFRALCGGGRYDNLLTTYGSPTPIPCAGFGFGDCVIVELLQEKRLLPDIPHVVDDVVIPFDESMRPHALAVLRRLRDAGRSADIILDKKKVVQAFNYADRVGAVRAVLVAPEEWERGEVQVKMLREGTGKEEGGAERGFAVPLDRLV
UniProt P9WNZ1, whole entry: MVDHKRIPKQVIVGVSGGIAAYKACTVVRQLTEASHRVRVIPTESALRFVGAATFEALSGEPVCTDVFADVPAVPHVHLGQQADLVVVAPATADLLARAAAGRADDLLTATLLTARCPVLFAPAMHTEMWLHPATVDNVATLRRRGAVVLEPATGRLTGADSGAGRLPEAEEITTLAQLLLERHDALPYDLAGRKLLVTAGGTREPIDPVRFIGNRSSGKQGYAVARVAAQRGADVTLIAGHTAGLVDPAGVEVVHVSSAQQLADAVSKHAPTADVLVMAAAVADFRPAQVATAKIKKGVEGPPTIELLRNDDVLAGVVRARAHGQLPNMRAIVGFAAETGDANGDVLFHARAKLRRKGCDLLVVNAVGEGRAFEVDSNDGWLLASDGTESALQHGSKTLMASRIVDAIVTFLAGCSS

Source: ChEMBL document CHEMBL3988442, “University of Dundee, Small-Polar-MMV Screening Library” (2021).

ClpP1P2: 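Protease assay of ClpP1P2, read by the AMC dye that it sets free. Target: ClpP1P2, Mycobacterium tuberculosis (UniProt P9WPC5 and UniProt P9WPC3). Compounds at 50 µM. Direction is inferred from only a few compounds that gave an IC50; most scored high, so higher reads as stronger inhibition. Most other retested compounds had strongly negative values. Size under these conditions: about 69,000 compounds, about 10 of them at 50% or above in at least one test.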
Toxoplasma: 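Assay of Toxoplasma gondii numbers, read through their beta-galactosidase reporter with a colour substrate. Compounds at 10 µM. Higher reads as fewer parasites (inferred from which compounds were picked for retests). Size under these conditions: about 67,000 compounds, about 260 of them at 50% or above in at least one test.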
Leishmania in macrophages: 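Cell assay of Leishmania donovani living inside macrophages; the read-out is not stated. Compounds at 30 µM. The record gives no direction; compounds that gave an IC50 in retests scored well above the rest, so higher reads as stronger inhibition. Size under these conditions: about 69,000 compounds, about 1,000 of them at 50% or above in at least one test.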
TcHisRS: 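Enzyme assay of histidyl-tRNA synthetase; the read-out is not stated. Target: Histidine-tRNA ligase, Trypanosoma cruzi CL Brener (UniProt Q4DA54). Compounds at 30 µM. Higher reads as stronger inhibition (inferred: compounds with an IC50 in retests scored well above the rest). About 69,000 compounds were tested under these conditions; 0.045% (about 31) showed 50% or more at least once.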
CoaBC: 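Coenzyme A biosynthesis protein CoaBC, Mycobacterium tuberculosis (UniProt P9WNZ1). Enzyme assay of CoaBC with a phosphate dye (Biomol Green) read at 650 nm. Compounds at 30 µM. Higher reads as stronger inhibition, judged from the few compounds that gave an IC50. Most strong results did not repeat in a second test. Size under these conditions: about 67,000 compounds, about 40 of them at 50% or above in at least one test.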

Each number is a percent effect as filed.
How 0% and 100% were set is not recorded. Most values in the screen are low, and negative values occur.
This is an unselected part of the compounds tested.
A dash means the value is not listed here; it may have been measured.

SMILES,ClpP1P2,Toxoplasma,Leishmania in macrophages,TcHisRS,CoaBC
COc1ccc(CCNC(=O)C2CCOC2)c(Cl)c1 (stereo not given),-2.424,8.729,33.7,3.061,-3.515
[H][C@]12CC[C@]([H])(CN(C(=O)Cc3cccs3)C1)N(Cc1ccccn1)C2=O,-,1.217,15.39,-,-
O=C(NCCCc1ccccn1)c1cn(CCN2CCNCC2)nn1,-5.718,-6.43,4.446,9.392,5.34
Cc1ccc2c(c1)C1(CCN(C(N)=O)CC1)CN2C(=O)N(C)C,8.106,2.448,21.23,3.941,0.2538
Cc1n[nH]c(C2CN(C(=O)c3cc(C4CC4)[nH]n3)CCO2)n1 (stereo not given),9.784,-9.037,-12.92,3.396,3.846
Cc1cnn(CC2CCCN2CC(=O)Nc2cc(C)no2)c1 (stereo not given),-31.46,1.703,-2.271,-0.2849,-0.5362
CN1CCN(Cc2c(Cl)ccc(O)c2Cl)CC1C(=O)O (stereo not given),3.766,15.91,-9.135,5,2.81
COc1ncccc1NC(=O)C1CC1,-33.08,-19.84,10.17,4.611,-1.591
Cc1nnc(CN(C)C2CCCN(Cc3noc(C4CC4)n3)C2)o1 (stereo not given),-4.317,8.851,7.989,0.578,3.52
CCc1nccn1CCC(=O)N1CC[C@@H](c2sccc2C)[C@H](O)C1,3.496,4.464,5.281,5.682,5.353
CS(=O)(=O)NCc1nnc2n1CCN(Cc1ccncc1)C2,5.054,-4.425,23.85,0.9804,-3
COCCn1cnnc1C(C)NC(=O)c1[nH]c2c(C)cc(C)cc2c1C (stereo not given),15.22,2.443,-3.161,-3.093,-7.692
Cc1cc(F)ccc1CCNC(=O)NCC(C)N1CCOCC1 (stereo not given),-17.43,13.8,20.18,0.4484,2.792
CS(=O)(=O)N[C@@H]1CCN(Cc2cccs2)[C@H]1Cc1cccnc1,1.633,26.4,2.464,0,4.315
COCC1CN(Cc2ccc(C)o2)Cc2nnn(CC3CC3)c21 (stereo not given),-16.53,-,-,7.531,-1.364
Cc1ccc(C(CNC(=O)c2cc(=O)c3ccccc3[nH]2)N(C)C)cc1 (stereo not given),-4.079,27.94,16.82,2.609,17.39
CC(=O)N(c1ccc(C)cc1)c1nc(CN2CCCCC2C)cs1 (stereo not given),-1.018,-16.35,20.88,6.173,2.948
Cc1ccc(CN2CCOC(c3cnccn3)C2)s1 (stereo not given),-10.37,-8.624,57.91,5.303,-1.84
c1cnc(Nc2ccc(C3CCCCN3)cn2)cn1 (stereo not given),-47.5,-,37.69,6.923,-0.4751
CN1CCc2[nH]nc(C(=O)N3CCCC4(CN(C)C(=O)O4)C3)c2C1 (stereo not given),-6.624,8.786,24.47,2.809,5.03
CC(CNC(=O)N1CCN(Cc2ccon2)CC1)Cc1cccs1 (stereo not given),0.6106,-43.01,-15.18,3.261,-1.411
CCc1cnc(C)nc1NC(CC)c1cnn(C)c1 (stereo not given),10.25,-8.772,11.26,-4.372,17.85
O=C(c1ccsc1)N1C[C@H]2CCC[C@@]2(COCc2cccnc2)C1,0.7489,-,-,7.2,3.609
O=C(COCc1nc(-c2ccncc2)no1)NC1CCCCC1,-5.579,1.658,17.68,0.8368,1.818
CC(CNS(N)(=O)=O)Oc1ccc(Cl)cc1 (stereo not given),-4.071,-10.93,-41.72,2.128,4.418
CC(C)Nc1ccc2nc(C3CCNCC3)nn2c1,10.51,-6.328,23.52,7.317,6.015
COCCOc1ncccc1C(=O)N1CCCC(n2ccnc2C)C1 (stereo not given),0.2879,6.387,20.14,3.429,1.434
Cc1nc2c(c(NC3CC3)n1)CCN(C(=O)CCO)CC2.O=C(O)C(F)(F)F,-,-12.61,40.6,-,-
COC(=O)C(NC(=O)C1CCC1)c1cc(F)ccc1F (stereo not given),-6.989,10.58,15.13,5.714,2.151
COc1cc2cc(C)c(SCCN3CCCC3)nc2cc1OC.Cl,-,7.687,-16.56,-,-
CCNC(=O)N1CCC2(C1)c1ccccc1S(=O)(=O)N2CCOC (stereo not given),6.02,-24.91,-1.434,11.06,6.947
COc1ccc(CN2CCCCC2c2n[nH]cc2-c2cc(C)no2)cc1 (stereo not given),1.459,-,-,-0.3831,4.854
CCN(CC)Cc1cn2c(n1)CN(Cc1c(C)noc1C)CC2.O=C(O)C(F)(F)F.O=C(O)C(F)(F)F,-,2.243,34.09,-,-
[H][C@]12CC[C@]([H])(CN(S(=O)(=O)N(C)C)C1)N(C(=O)Cn1ccnc1CC)C2,-,2.556,25.68,-,-
Cn1ccnc1CN1CCCN(C(=O)COC2CCCC2)CC1,-6.786,-5.271,36.13,2.817,3.944
[H][C@]12CCCN(S(=O)(=O)c3ccc(Cl)s3)[C@@]1([H])CN(C(=O)C1CC1)C2,-,6.268,11.46,-,-
Cc1noc(CN(Cc2cccs2)C2CCS(=O)(=O)C2)n1 (stereo not given),-8.436,-1.297,17.89,1.734,-0.894

The first 3 entries again:

SMILES,ClpP1P2,Toxoplasma,Leishmania in macrophages,TcHisRS,CoaBC
COc1ccc(CCNC(=O)C2CCOC2)c(Cl)c1 (stereo not given),-2.424,8.729,33.7,3.061,-3.515
[H][C@]12CC[C@]([H])(CN(C(=O)Cc3cccs3)C1)N(Cc1ccccn1)C2=O,-,1.217,15.39,-,-
O=C(NCCCc1ccccn1)c1cn(CCN2CCNCC2)nn1,-5.718,-6.43,4.446,9.392,5.34